Measurements reported in PubChem BioAssay AID1508597 (Cure First, 2020)
Aim: 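Genes whose silencing sensitises or protects ovarian cancer cells against rucaparib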 (primary screen). Cell system: human ovarian carcinoma lines grown from tumours: OCI-P5x (papillary serous) and OCI-C5x (clear cell). Reagents: siRNA pool against human genes, 1.25 pmol siRNA per well. Duration: 72 h or 96 h, depending on the cell culture. Conditions: rucaparib 20 µM (about IC30) or vehicle, present until read-out. Rucaparib or vehicle: Rucaparib. Cell line: OCI-P5x (serous). Read-out: 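Luminescent ATP-based viability assay read 72 or 96 h after transfection, depending on culture, given as normalised percent viability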. Direction: viability, normalised: higher = more viable cells remaining. Call rule: 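a well counts as a hit if its normalised viability is under 80 percent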. Calls: active = viability under 80%; inactive = viability 80% or more.
This is a random part of the about 2,100 reagents, under one of the conditions tested. 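Calls flag viability under 80% in either arm, not effects specific to rucaparib; the reference for percent is not stated.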 Entries without a mark were called inactive. Not given: the 100% reference.

UCKL1 (uridine-cytidine kinase 1 like 1), technical replicate 1 scored viability, normalised (%) = 51.8 (active). UCKL1 (uridine-cytidine kinase 1 like 1), technical replicate 2 gave viability, normalised (%) = 59.7 (active). With UCKL1 (uridine-cytidine kinase 1 like 1), technical replicate 3 the deposit lists viability, normalised (%) = 42.3 (active). MAEL (maelstrom spermatogenic transposon silencer), technical replicate 1 gave viability, normalised (%) = 70.6 (active). With MAEL (maelstrom spermatogenic transposon silencer), technical replicate 2 the deposit lists viability, normalised (%) = 63.6 (active). MAEL (maelstrom spermatogenic transposon silencer), technical replicate 3 scored viability, normalised (%) = 81.

Hits (from the list above):
UCKL1 (uridine-cytidine kinase 1 like 1), technical replicate 1 — viability, normalised (%): 51.8 (active)
UCKL1 (uridine-cytidine kinase 1 like 1), technical replicate 2 — viability, normalised (%): 59.7 (active)
UCKL1 (uridine-cytidine kinase 1 like 1), technical replicate 3 — viability, normalised (%): 42.3 (active)
MAEL (maelstrom spermatogenic transposon silencer), technical replicate 1 — viability, normalised (%): 70.6 (active)
MAEL (maelstrom spermatogenic transposon silencer), technical replicate 2 — viability, normalised (%): 63.6 (active)

Additional entries:
For CASK (calcium/calmodulin dependent serine protein kinase), technical replicate 1 the deposit lists viability, normalised (%) = 92. For CASK (calcium/calmodulin dependent serine protein kinase), technical replicate 2, the entry reads viability, normalised (%) = 98.4. With CASK (calcium/calmodulin dependent serine protein kinase), technical replicate 3, the entry reads viability, normalised (%) = 79.7 (active). ITGB1 (integrin subunit beta 1), technical replicate 1 gave viability, normalised (%) = 77.2 (active). ITGB1 (integrin subunit beta 1), technical replicate 2 showed viability, normalised (%) = 71.9 (active). With ITGB1 (integrin subunit beta 1), technical replicate 3, the entry reads viability, normalised (%) = 75.7 (active).
